Data: the supplement of paper PMC8960247
Structures can show the parent of a compound that is named as a salt. Single values of this set are uncertain.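 Immortalized human renal angiomyolipoma cells with an empty vector keep TSC2 lost. A luminescent ATP assay measured viability, normalized per plate to vehicle-treated wells, in low-serum medium where TSC2-rescued cells fail to grow.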

Test system: 621-102 (TSC2-deficient)
Test: relative viability vs DMSO (fraction); higher = less cytotoxic
Settings: serum: 0.1% FBS, 72 h

| Compound | relative viability (0.0128 nM) | relative viability (0.064 nM) | relative viability (0.32 nM) | relative viability (1.6 nM) | relative viability (8 nM) | relative viability (40 nM) | relative viability (200 nM) | relative viability (1000 nM) | relative viability (5000 nM) |
| --- | --- | --- | --- | --- | --- | --- | --- | --- | --- |
| COc1ccc([C@H]2CNC(=O)C2)cc1OC1CCCC1 [S-(+)-Rolipram] | 0.765 | 0.917 | 0.866 | 0.879 | 0.84 | 0.783 | 0.735 | 0.749 | 0.752 |
| NC12CC3CC(CC(C3)C1)C2 [Amantadine HCl] | 0.802 | 0.815 | 0.76 | 0.756 | 0.712 | 0.656 | 0.648 | 0.727 | 0.583 |
| COC(=O)C1=C(C)NC(C)=C(C(=O)OCC(C)C)C1c1ccccc1[N+](=O)[O-] (centres undefined) [Nisoldipine] | 1.24 | 1.39 | 1.45 | 1.25 | 0.716 | 0.94 | 0.98 | 1.12 | 0.136 |
| Nc1nc(F)nc2c1ncn2[C@@H]1O[C@H](CO)[C@@H](O)[C@@H]1O [Fludarabine] | 1.35 | 1.37 | 1.44 | 0.832 | 0.717 | 0.607 | 1.13 | 1.05 | 0.238 |
| CC(C)Cc1ccc(C(C)C(=O)O)cc1 (centres undefined) [Ibuprofen] | 0.614 | 0.745 | 0.814 | 0.777 | 0.842 | 0.842 | 0.784 | 0.819 | 0.106 |
| O=C(Nc1cccc(Cl)c1)Nc1ncc(CCNc2ncnc3ccsc23)s1 [SNS-314 Mesylate] | 0.825 | 0.833 | 0.864 | 0.841 | 0.0374 | 0.0165 | 0.0167 | 0.0449 | 0.0625 |
| COc1cc(OC)c(OC)cc1C=O [Asaraldehyde] | 0.593 | 0.838 | 0.894 | 0.934 | 1.02 | 0.903 | 0.956 | 0.354 | 0.725 |
| CN1CC[C@H](c2c(O)cc(O)c3c(=O)cc(-c4ccccc4Cl)oc23)[C@H](O)C1 [Flavopiridol hydrochloride] | 0.735 | 0.695 | 0.718 | 0.659 | 0.656 | 0.552 | 0.101 | 0.00782 | 0.0114 |
| O=C1NC(=O)/C(=C\c2ccc3nccnc3c2)S1 | 0.97 | 0.954 | 0.937 | 1.02 | 1.02 | 0.941 | 0.862 | 0.823 | 0.445 |
| CC(C)(C)c1cnc(CSc2cnc(NC(=O)C3CCNCC3)s2)o1 | 0.817 | 0.892 | 0.763 | 0.803 | 0.753 | 0.4 | 0.0133 | 0.00953 | 0.00991 |
| O=C(Nc1ccc(OC(F)(F)F)cc1)c1sccc1NCc1ccnc2ccccc12 [OSI-930] | 0.844 | 0.655 | 0.758 | 0.872 | 0.791 | 0.845 | 0.917 | 0.575 | 0.0159 |
| Cc1ccccc1-n1c(Cn2ncc3c(N)ncnc32)nc2cccc(C)c2c1=O [PIK-293] | 0.695 | 0.677 | 0.639 | 0.783 | 0.696 | 0.75 | 0.747 | 0.668 | 0.741 |
| Nc1ncn([C@H]2C[C@H](O)[C@@H](CO)O2)c(=O)n1 [Decitabine] | 0.79 | 0.809 | 0.773 | 0.841 | 0.639 | 0.404 | 0.206 | 0.0717 | 0.0455 |
| CNC[C@H](O)c1ccc(O)c(O)c1 [Epinephrine Bitartrate] | 0.886 | 0.827 | 0.815 | 0.795 | 0.816 | 0.802 | 0.818 | 0.825 | 0.799 |
| CCc1c2c(nc3ccc(OC(=O)N4CCC(N5CCCCC5)CC4)cc13)-c1cc3c(c(=O)n1C2)COC(=O)[C@]3(O)CC [Irinotecan] | 0.742 | 0.73 | 0.826 | 0.726 | 0.739 | 0.753 | 0.554 | 0.0526 | 0.0315 |
| CCN[C@H]1C[C@H](C)S(=O)(=O)c2sc(S(N)(=O)=O)cc21 [Dorzolamide HCl] | 0.886 | 0.861 | 0.879 | 0.802 | 0.884 | 0.773 | 0.758 | 0.7 | 0.713 |
| Cc1cc(OCCCS(C)(=O)=O)cc(C)c1-c1cccc(COc2ccc3c(c2)OC[C@H]3CC(=O)O)c1 [TAK-875] | 0.713 | 0.799 | 0.669 | 0.176 | 0.74 | 0.667 | 0.741 | 0.781 | 0.746 |
| CC(C)c1cc(C(C)C)c(CC(=O)NS(=O)(=O)Oc2c(C(C)C)cccc2C(C)C)c(C(C)C)c1 [Avasimibe] | 0.631 | 0.652 | 0.184 | 0.191 | 0.11 | 0.172 | 0.284 | 0.193 | 0.0444 |
| Cc1ccc(NC(=O)c2ccc(CN3CCN(C)CC3)cc2)cc1Nc1nc(-c2cccnc2)cs1 [Masitinib (AB1010)] | 1.03 | 0.996 | 0.865 | 0.864 | 0.892 | 0.735 | 0.818 | 0.904 | 0.862 |
| Cc1[nH]c(/C=C2\C(=O)Nc3ccc(S(=O)(=O)N(C)c4cccc(Cl)c4)cc32)c(C)c1C(=O)N1CCN(C)CC1 | 0.63 | 0.872 | 0.671 | 0.932 | 0.759 | 0.719 | 0.597 | 0.394 | 0.028 |
| CO[C@@H](C(=O)N1Cc2[nH]nc(NC(=O)c3ccc(N4CCN(C)CC4)cc3)c2C1)c1ccccc1 | 0.87 | 0.855 | 0.69 | 0.946 | 0.775 | 0.835 | 0.0334 | 0.0096 | 0.00612 |
| CC[C@@H]1C(=O)N(C)c2cnc(Nc3ccc(C(=O)NC4CCN(C)CC4)cc3OC)nc2N1C1CCCC1 [BI 2536] | 0.703 | 0.593 | 0.718 | 0.536 | 0.0261 | 0.00854 | 0.0144 | 0.0339 | 0.00858 |
| CC(=O)Nc1ccccc1 [Acetanilide] | 0.808 | 0.833 | 0.854 | 0.823 | 0.794 | 0.799 | 0.753 | 0.8 | 0.795 |

Whole records, looked up by structure. Order of values: relative viability (0.0128 nM) | relative viability (0.064 nM) | relative viability (0.32 nM) | relative viability (1.6 nM) | relative viability (8 nM) | relative viability (40 nM) | relative viability (200 nM) | relative viability (1000 nM) | relative viability (5000 nM)
CC(C)(C)c1cnc(CSc2cnc(NC(=O)C3CCNCC3)s2)o1 is entered as 0.817 | 0.892 | 0.763 | 0.803 | 0.753 | 0.4 | 0.0133 | 0.00953 | 0.00991
Cc1cc(OCCCS(C)(=O)=O)cc(C)c1-c1cccc(COc2ccc3c(c2)OC[C@H]3CC(=O)O)c1 [TAK-875] is entered as 0.713 | 0.799 | 0.669 | 0.176 | 0.74 | 0.667 | 0.741 | 0.781 | 0.746

Following part

| Compound | relative viability (0.0128 nM) | relative viability (0.064 nM) | relative viability (0.32 nM) | relative viability (1.6 nM) | relative viability (8 nM) | relative viability (40 nM) | relative viability (200 nM) | relative viability (1000 nM) | relative viability (5000 nM) |
| --- | --- | --- | --- | --- | --- | --- | --- | --- | --- |
| CS(=O)(=O)CCNCc1ccc(-c2ccc3ncnc(Nc4ccc(OCc5cccc(F)c5)c(Cl)c4)c3c2)o1 | 0.831 | 0.729 | 0.362 | 0.881 | 0.753 | 0.166 | 0.749 | 0.103 | 0.0205 |
| CCCCNc1ccc(C(=O)OCCN(C)C)cc1 [Tetracaine HCl] | 0.706 | 0.694 | 0.16 | 0.626 | 0.727 | 0.663 | 0.665 | 0.698 | 0.613 |
| C=CC(=O)Nc1cccc(Oc2nc(Nc3ccc(N4CCN(C)CC4)cc3OC)ncc2Cl)c1 [WZ4002] | 0.904 | 0.896 | 1.02 | 0.886 | 0.847 | 0.844 | 0.777 | 0.69 | 0.351 |
| CN1CCN(c2ccc([N+](=O)[O-])c3no[n+]([O-])c23)CC1 | 0.816 | 0.877 | 0.879 | 0.877 | 0.809 | 0.712 | 0.732 | 0.175 | 0.598 |
| Nc1ccc(S(N)(=O)=O)cc1 [Sulfanilamide] | 1.4 | 1.51 | 1.64 | 1.54 | 0.751 | 0.855 | 1.11 | 1.82 | 0.958 |
| COc1cc(Nc2c(C#N)cnc3cc(OCCCN4CCN(C)CC4)c(OC)cc23)c(Cl)cc1Cl [Bosutinib (SKI-606)] | 0.624 | 0.734 | 0.817 | 0.779 | 0.842 | 0.876 | 0.915 | 0.0137 | 0.0117 |
| CC[C@@]1(O)C(=O)OCc2c1cc1n(c2=O)Cc2cc3c(CN(C)C)c(O)ccc3nc2-1 [Topotecan HCl] | 0.836 | 0.847 | 0.778 | 0.82 | 0.785 | 0.363 | 0.0277 | 0.0231 | 0.0138 |
| CCOc1cc2ncc(C#N)c(Nc3ccc(F)c(Cl)c3)c2cc1NC(=O)/C=C/CN(C)C [Pelitinib (EKB-569)] | 0.833 | 0.88 | 0.718 | 0.758 | 0.776 | 0.878 | 0.716 | 0.0202 | 0.00914 |
| Cc1cccc(-c2nn3c(c2-c2ccnc4ccc(C(N)=O)cc24)CCC3)n1 | 0.651 | 0.535 | 0.598 | 0.894 | 0.604 | 0.609 | 0.615 | 0.661 | 0.812 |
| CCCc1nc2c(C)cc(-c3nc4ccccc4n3C)cc2n1Cc1ccc(-c2ccccc2C(=O)O)cc1 [Telmisartan] | 0.765 | 0.772 | 0.803 | 0.726 | 0.731 | 0.656 | 0.69 | 0.731 | 0.748 |
| CCc1cccc(CC)c1NC(=O)N1Cc2[nH]nc(NC(=O)c3ccc(N4CCN(C)CC4)cc3)c2C1 | 0.816 | 0.745 | 0.795 | 0.669 | 0.716 | 0.717 | 0.0798 | 0.00692 | 0.00614 |
| CC(=O)c1c(C)c2cnc(Nc3ccc(N4CCNCC4)cn3)nc2n(C2CCCC2)c1=O | 0.896 | 0.833 | 0.872 | 0.813 | 0.743 | 0.843 | 0.706 | 0.706 | 0.0837 |
| CN(C)CCOC(c1ccccc1)c1ccccc1 [Diphenhydramine HCl] | 1.22 | 1.37 | 1.36 | 1.51 | 0.935 | 0.776 | 0.89 | 1.09 | 0.554 |
| COC(=O)C1=C(C)NC(C)=C(C(=O)OCCN2CCN(C(c3ccccc3)c3ccccc3)CC2)C1c1cccc([N+](=O)[O-])c1 (centres undefined) [Manidipine] | 0.748 | 0.706 | 0.736 | 0.744 | 0.751 | 0.742 | 0.747 | 0.687 | 0.712 |
| CO[C@@H]1[C@@H](OC(N)=O)[C@@H](O)[C@H](Oc2ccc3c(O)c(NC(=O)c4ccc(O)c(CC=C(C)C)c4)c(=O)oc3c2C)OC1(C)C [Novobiocin Sodium] | 0.99 | 1.05 | 0.947 | 0.958 | 1 | 0.883 | 0.945 | 0.193 | 0.162 |
| CN1CCCC(n2nc(Cc3ccc(Cl)cc3)c3ccccc3c2=O)CC1 (centres undefined) [Azelastine HCl] | 0.641 | 0.145 | 0.788 | 0.875 | 0.868 | 0.771 | 0.764 | 0.747 | 0.633 |
| COc1cc2c(Nc3ccc(NC(=O)c4ccccc4)cc3)ncnc2cc1OCCCN1CCOCC1 | 0.497 | 0.651 | 0.489 | 0.593 | 0.591 | 0.602 | 0.509 | 0.0253 | 0.00809 |
| CC(C)C[C@H](NC(=O)[C@H](Cc1ccccc1)NC(=O)c1cnccn1)B(O)O [Bortezomib (PS-341)] | 1.21 | 1.55 | 1.7 | 0.668 | 0.0283 | 0.0144 | 0.0159 | 0.0132 | 0.00889 |
| NC(=O)c1ccc(I)c([N+](=O)[O-])c1 [BSI-201] | 0.885 | 0.909 | 0.915 | 0.848 | 0.849 | 0.794 | 0.782 | 0.729 | 0.817 |
| Cc1[nH]c(/C=C2\C(=O)Nc3ccccc32)c(C)c1CCC(=O)O [TSU-68] | 0.903 | 0.832 | 0.907 | 0.951 | 0.845 | 0.634 | 0.427 | 0.3 | 0.154 |
| O=C(O)[C@H]1O[C@@H](Oc2cc3oc(-c4ccccc4)cc(=O)c3c(O)c2O)[C@H](O)[C@@H](O)[C@@H]1O [Baicalin] | 1.32 | 1.33 | 1.41 | 1.22 | 0.665 | 0.788 | 1.04 | 1.07 | 0.593 |
| FC(F)(F)c1ccc(Nc2nc3ccc(Oc4ccnc(-c5ncc(C(F)(F)F)[nH]5)c4)cc3[nH]2)cc1 [Raf265 derivative] | 0.839 | 0.823 | 0.805 | 0.857 | 0.746 | 0.697 | 0.546 | 0.0787 | 0.00509 |
| Cc1cc(Nc2nc(N[C@@H](C)c3ncc(F)cn3)ncc2Cl)[nH]n1 [AZD1480] | 0.897 | 0.841 | 0.766 | 0.825 | 0.73 | 0.694 | 0.746 | 0.789 | 0.665 |
